From paper PMC3660565 come the findings set out here.

The chains behind the UniProt entries cited, without tags or fusion partners.
UniProt Q15172: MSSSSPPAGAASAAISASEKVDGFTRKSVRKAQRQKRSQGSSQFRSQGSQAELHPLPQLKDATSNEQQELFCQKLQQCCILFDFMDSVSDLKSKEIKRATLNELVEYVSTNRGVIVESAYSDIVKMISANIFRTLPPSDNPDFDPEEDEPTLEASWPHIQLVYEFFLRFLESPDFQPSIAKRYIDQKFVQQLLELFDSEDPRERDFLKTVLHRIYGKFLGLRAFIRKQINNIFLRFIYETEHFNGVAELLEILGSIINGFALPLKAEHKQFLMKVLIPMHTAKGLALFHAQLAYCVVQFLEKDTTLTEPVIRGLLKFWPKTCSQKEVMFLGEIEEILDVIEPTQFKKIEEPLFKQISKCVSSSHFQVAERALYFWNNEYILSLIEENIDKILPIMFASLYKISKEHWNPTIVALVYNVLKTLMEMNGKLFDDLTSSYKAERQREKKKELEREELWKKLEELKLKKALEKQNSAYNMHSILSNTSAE
UniProt Q15173: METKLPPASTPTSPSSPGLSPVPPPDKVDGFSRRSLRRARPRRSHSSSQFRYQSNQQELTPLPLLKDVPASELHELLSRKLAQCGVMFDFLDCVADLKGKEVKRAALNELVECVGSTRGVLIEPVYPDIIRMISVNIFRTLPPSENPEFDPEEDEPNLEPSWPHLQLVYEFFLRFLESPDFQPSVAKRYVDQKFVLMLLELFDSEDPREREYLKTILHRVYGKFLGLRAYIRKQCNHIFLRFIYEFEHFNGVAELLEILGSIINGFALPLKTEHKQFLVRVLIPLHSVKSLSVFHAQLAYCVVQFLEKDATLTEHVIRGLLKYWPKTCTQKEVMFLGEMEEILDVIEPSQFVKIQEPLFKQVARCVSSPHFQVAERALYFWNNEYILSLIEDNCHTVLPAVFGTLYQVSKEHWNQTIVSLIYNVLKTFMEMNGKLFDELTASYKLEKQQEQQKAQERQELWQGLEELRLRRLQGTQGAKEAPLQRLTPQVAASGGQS

Test [1] addresses HA-tagged B56α1 (PP2A regulatory subunit B56α1) (UniProt Q15172). The test can be described thus: co-IP; HA-B56 immunoprecipitated with anti-HA antibodies and protein G Sepharose from lysates of permanently B56-transfected Calu1 cells (50 mM Tris-HCl pH 7.4, 150 mM NaCl, 1% NP-40, 0.25% sodium deoxycholate); co-precipitated endogenous proteins detected by western blotting; 2x10^6 cells (6x10^6 cells for B56β1 with C subunit); in Figure 7A cells stimulated with EGF and loaded on collagen, 0 to 60 min. For orientation: Immunoblotting shows a protein as a band on a membrane.

The target of test [2] is HA-tagged B56β1 (PP2A regulatory subunit B56β1) (UniProt Q15173). The description is as above.

These are yes or no findings as the source states them, for the method shown. Binding seen in cells or lysates may run through a third protein.

B1: Immediate early response protein 3, IER3 (protein, UniProt P46695 1-156)
chain: MCHSRSCHPTMTILQAPTPAPSTIPGPRRGSGPEIFTFDPLPEPAAAPAGRPSASRGHRKRSRRVLYPRVVRRQLPVEEPNPAKRLLFLLLTIVFCQILMAEEGVPAPLPPEDAPNAASLAPTPVSAVLEPFNLTSEPSDYALDLSTFLQQHPAAF
For the molecule B1, the binding entry in test [1] and in test [2] was “no binding” each time.
